Results from the supplement of paper PMC9254222.
Over roughly 1,100 compounds, “Wnt reporter firefly/Renilla luciferase ratio relative to plate median” has its median near 1.1; the highest 2% begin near 1.6. This is a selection; strong and weak results do not stand in their true shares.

Test system: HEK293T (UBE3A T485A transfected, BAR Wnt reporter)
Assay: Wnt reporter firefly/Renilla luciferase ratio relative to plate median (fold (linear ratio)); higher = more Wnt/beta-catenin reporter activation
Conditions: 24 h
Method in brief: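 HEK293T cells were seeded at 4500 cells/well in white 384-well plates and grown in DMEM with 10% FBS at 37°C and 5% CO2. The cells were transfected using Fugene 6 with a BAR firefly luciferase Wnt reporter, TK-Renilla and an expression plasmid, and four hours later robots added the chemicals at 0.01–100 uM for 24 h before a Dual-Glo luciferase readout. Wnt activity was taken as the firefly/Renilla ratio and cell health as raw Renilla, each median-centred per plate. Values are averages of four biological replicates.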

Structure (SMILES)	Wnt reporter firefly/Renilla luciferase ratio (concentration: 0.1 uM)	Wnt reporter firefly/Renilla luciferase ratio (concentration: 1 uM)	Wnt reporter firefly/Renilla luciferase ratio (concentration: 10 uM)	Wnt reporter firefly/Renilla luciferase ratio (concentration: 100 uM)	Wnt reporter firefly/Renilla luciferase ratio (concentration: 0.01 uM)
NC(=O)N(O)[C@@H]1C=C[C@H](Oc2cccc(Oc3ccc(F)cc3)c2)C1	1.11	1.08	1.05	0.467	
O=C1OC(=O)C2C3C=CC(C3)C12 (stereo not given) [2-Norbornene-5,6-dicarboxylic anhydride]	1.05	0.843	1.11	1.34	
CCCCCCC(C=O)=Cc1ccccc1 [2-Benzylideneoctanal]	0.942	0.906	0.822	0.757	
CCN(Cc1c(F)cccc1Cl)c1c([N+](=O)[O-])cc(C(F)(F)F)cc1[N+](=O)[O-] [Flumetralin]	1.65	1.11	0.843	0.851	1.23
CCn1nc(Cc2ccccc2)cc1C1CCN(C[C@H]2C[C@H](N(C)[C@@H](C(=O)O)C(C)C)C[C@@H]2c2cccc(F)c2)CC1	1.29	1.1	1.01	0.156	
CCCCCCCCCCCCc1ccccc1S(=O)(=O)O [Dodecylbenzenesulfonic acid]	1.14	1.13	1.2	1.04	
Oc1ccccc1O [Catechol]	1.13	1.01	0.875	0.27	
CC(=O)Nc1ccc(O)cc1 [Acetaminophen]	1.31	1.15	1.28	1.16	
COc1cc(C=O)ccc1O [4-Hydroxy-3-methoxybenzaldehyde]	1.16	0.961	0.984	1.07	
Cc1ccc(C(C)(C)C)c(O)c1 [2-tert-Butyl-5-methylphenol]	1.13	0.98	1.28	1.37	
C#CCOC(=O)[C@@H](C)Oc1ccc(Oc2ncc(Cl)cc2F)cc1 [Clodinafop-propargyl]	1.37	1.14	1.25	0.479	1.28
O=CCCCC=O [Glutaraldehyde]	1.25	1.01	1.41	1.09	
OC1CCC(C2CCCCC2)CC1 (stereo not given) [4-Cyclohexylcyclohexanol]	1.25	0.889	1.16	1.04	
CCCCc1nc2cccnc2n1Cc1ccc(-c2ccccc2-c2nnn[n-]2)cc1.[Na+]	0.867	1.04	0.946	0.145	
CC(=O)N1CCN(c2ccc(OC[C@H]3CO[C@](Cn4ccnc4)(c4ccc(Cl)cc4Cl)O3)cc2)CC1 [Ketoconazole]	1.24	0.768	1.09	0.14	
CCCCCCCC=O [Octanal]	1.09	1.13	1.13	1.36	
CC/C(=C(/CC)c1ccc(O)cc1)c1ccc(O)cc1 [Diethylstilbestrol]	0.897	0.807	0.741	0.205	

An excerpt from above, limited to Wnt reporter firefly/Renilla luciferase ratio (concentration: 100 uM).
Structure (SMILES) | Wnt reporter firefly/Renilla luciferase ratio (concentration: 100 uM)
NC(=O)N(O)[C@@H]1C=C[C@H](Oc2cccc(Oc3ccc(F)cc3)c2)C1 | 0.467
O=C1OC(=O)C2C3C=CC(C3)C12 (stereo not given) [2-Norbornene-5,6-dicarboxylic anhydride] | 1.34
